In PubChem BioAssay AID493014 (National Center for Advancing Translational Sciences (NCATS), 2011):
Among all 340,000 compounds or so, about 170 (0.05%) were called active. Inconclusive means that the source gave no clear call. Such entries were picked first, then a sample of the others. The call rests on the fitted dose curve; in most records, active means well fitted inhibition curve with a large enough effect in the signal ratio, with a control signal flat (not every such curve was filed as active); inconclusive means small, poorly fitted or top-dose-only effect, or effect the other way, or a change in a side signal; inactive means flat fitted curve, though single readings scatter; the % refers to the signal ratio. Potencies beside an inconclusive call are fits to weak or partial responses and may not hold up.

Test: qHTS Assay to Find Inhibitors of Chronic Active B-Cell Receptor Signaling;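 on activity change, negative = inhibition: plate controls were basal doxycycline-induced cells for no effect and cells given 10 µM MG132 for full effect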
Conditions: ABC-DLBCL IkBa-CBG/CBR reporter, luminescence ratio (green luciferase fused to IkBa over red control in TMD8 lymphoma cells), 4 h; activity change, negative = inhibition: at 46.1 µM (top of the series) unless noted
Outline: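 Cell line TMD8 (human ABC DLBCL), stably expressing tet-inducible CBG68-IkBa fusion and CBR; IMDM/0.5% FBS; cpd up to 46 uM; dox induction, 4 h, 37C/5% CO2; dual luminescence; green/red ratio; MG132 control.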
Potency means the concentration at half of the fitted maximal effect.

| SMILES | activity change, negative = inhibition | Potency |
| --- | --- | --- |
| COc1ccc(/C=N/Nc2nnc(-c3ncc[nH]3)c3ccccc23)cc1 | inconclusive: 1.25% | – |
| COc1ccc(/C=C/C(=O)N(C)C2(C)CCS(=O)(=O)C2)cc1 (centres undefined) | inactive: -3.66% | – |
| O=[N+]([O-])c1cn(-c2nc(-c3ccco3)cc(C(F)(F)F)n2)cn1 | – | inconclusive: 32.6 µM [rising, partial curve, poor fit] |
| COc1cccc2cc(-c3cc(=O)oc4ccc(OCC(C)=O)cc34)oc12 | inconclusive: 4.32% | – |
| CCOc1ccc(CN(C)C(=O)c2ccc(NS(=O)(=O)c3ccc4[nH]c(=O)[nH]c4c3)cc2)cc1 | inconclusive: -9.46% | – |
| Cc1ccc(NC(=O)COc2ccccc2)cc1Cl | inactive: 4.8% | – |
| Cc1ccc(N(C(=O)c2ccc(S(=O)(=O)N(C)C)cc2)C2C=CS(=O)(=O)C2)cc1 (centres undefined) | – | inconclusive: 5.62 µM [rising, single point] |
| Cc1cc(C)nc(NC2=NCCN2C(=O)NC2CCCCC2)n1 | inactive: 6.11% | – |
| COc1ccc(/C=C/C(=O)NCCCN2CCOCC2)cc1 | inconclusive: 0.2% | – |
| O=[N+]([O-])c1ccc(N=Cc2sc3ccccc3c2O)cc1 | – | inconclusive: 20.6 µM [falling, single point] |
| O=C1C(c2ccncc2)N(CCC2=CCCCC2)C(=O)CN1C1CCCCC1 (centres undefined) | inconclusive: 0.891% | – |
| CC(=O)N(CCN(C(C)=O)c1ccccc1)c1ccccc1 | inactive: 4.99% | – |
| CCOc1ccc(NC(=O)COC(=O)c2cc(=O)c3ccccc3o2)cc1 | inconclusive: -0.448% | – |
| COc1ccc(-c2noc(-c3ccoc3C)n2)cc1OC | inactive: 22.4% | – |
| COc1cc(C2SCC(=O)N2Cc2ccccc2)cc(OC)c1OC (centres undefined) | inconclusive: -10.8% | – |
| Cc1ccc(OCC(=O)N(Cc2ccco2)C2CCS(=O)(=O)C2)cc1C (centres undefined) | – | inconclusive: 22.4 µM [falling, single point] |
| O=C(CSCC(=O)Nc1cccc2ccccc12)Nc1cccc2ccccc12 | – | inconclusive: 5.62 µM [falling, partial curve, poor fit] |
| Cc1cc2cc(CNC(=S)Nc3ccc(OC(F)(F)F)cc3)ccc2[nH]1 | inactive: -13.2% | – |
| Cc1ccc(/C=N/NC(=O)c2c[nH]c3ccccc23)s1 | – | inconclusive: 31.6 µM [falling, partial curve] |
| CCS(=O)(=O)CCSc1nc2ccccc2o1 | inconclusive: 0.105% | – |
| COc1ccc(/C=N/Nc2nnc(-c3ccccc3)c(=O)[nH]2)cc1 | inconclusive: -6.27% | – |
| O=C1N[C@H](Cc2ccccc2)COC(=O)[C@H](Cc2ccc(F)cc2)CC/C=C/C[C@@H]1CC(=O)N(CCO)Cc1ccccc1 | inconclusive: -2.87% | – |
| CCCn1c(-c2cc(OC)c(OC)c(OC)c2)nc2c1c(=O)[nH]c(=O)n2Cc1ccccc1 | inactive: -9.28% | – |
| O=C(CSc1nc(Nc2ccccc2)nc(N2CCOCC2)n1)Nc1ccc2c(c1)OCCO2 | inconclusive: -10.7% | – |
| Cc1ccc(S(=O)(=O)N[C@H](C(=O)N2CCC(C(=O)N[C@@H](CCC(N)=O)C(=O)O)CC2)C(C)C)cc1 | inactive: 8.08% | – |
| Cc1cc(C)nc(N/N=C/c2cccc3ccccc23)n1 | inconclusive: -18.7% | – |
| COc1cc(/C=C/c2noc(-c3ccccc3O)n2)ccc1OC(C)=O | – | inconclusive: 12.6 µM [falling, partial curve] |

| SMILES | activity change, negative = inhibition | Potency |
| --- | --- | --- |
| Cc1ccc(C(=O)C[n+]2cc(-c3ccccc3)n3c2CCCCC3)cc1 | inconclusive: -2.72% | – |
| N#Cc1ccccc1COC(=O)CCN=C1NS(=O)(=O)c2ccccc21 | inconclusive: 0.241% | – |
| Cc1ccc(/C=N/Nc2ccc(Cl)c(C(=O)O)c2)s1 | inconclusive: 198% | – |
| COc1cc(N2C(=O)C=CC2=O)c(OC)cc1Cl | inconclusive: 20.6% | – |
| COc1ccc2nc(SCC(=O)N3CCN(c4ccc(F)cc4)CC3)c(C#N)cc2c1 | – | inconclusive: 18.4 µM [falling, partial curve, poor fit] |
| CCOC(=O)C1=C(CC)Nc2ccccc2N=C1NC(=O)c1ccc(C)c(S(=O)(=O)N2CCOCC2)c1 | inconclusive: 8.5% | – |
| Cc1[nH]n2c(=O)c3c(nc2c1-c1ccc(F)cc1)CCCC3 | inactive: 5.46% | – |
| O=S(=O)(c1ccc(OC(F)(F)F)cc1)N1CCC(O)(c2cccc(C(F)(F)F)c2)CC1 | inconclusive: -27.7% | – |
| NNC(=O)c1[nH]c2ccc([N+](=O)[O-])cc2c1-c1ccccc1 | – | inconclusive: 6.31 µM [falling, full curve] |
| CCOC(=O)N1CCN(C(=O)CSCC(=O)Nc2nc(-c3cccs3)cs2)CC1 | inconclusive: 5.6% | – |
| O=C(c1ccc(Cl)cc1)N1N=CCC1(O)c1ccc(Cl)cc1 (centres undefined) | – | inconclusive: 28.2 µM [falling, single point] |
| O=[N+]([O-])c1ccc(/C=C/c2ccc3cccc([N+](=O)[O-])c3n2)cc1 | inconclusive: 16.8% | – |
| CCCCCCCNC(=O)C1(CC2CC(c3cccc(Br)c3)=NO2)CCNCC1 (centres undefined) | inactive: -17.5% | – |
| CC(C)c1c(Cl)c(O)c(-c2ccccc2)c(=O)n1-c1ccc(F)cc1 | inactive: -0.031% | – |
| O=c1nc(/C=C/c2cc([N+](=O)[O-])ccc2Cl)cc(C(F)(F)F)[nH]1 | – | inconclusive: 0.0731 µM [falling, full curve, poor fit] |
| CCOc1ccc(NC(=O)CSc2n[nH]c(N)n2)c([N+](=O)[O-])c1 | inconclusive: 0.104% | – |
| CCOC(=O)C1CCCN(C(=O)Cn2ncc3c([nH]c4ccccc43)c2=O)C1 (centres undefined) | – | inconclusive: 3.98 µM [falling, partial curve, poor fit] |
| CSCCC(NC(=O)COc1ccccc1)C(=O)N1CCN(c2ccccc2F)CC1 (centres undefined) | inactive: -4.57% | – |
| Cc1ccc(SCC2(O)CCN(S(=O)(=O)c3ccc(Cl)cc3)CC2)cc1 | inactive: 4.17% | – |
| CC(=O)c1c(-c2ccccc2)[nH]c2ccccc12 | inconclusive: -7.57% | – |
| Cc1ccc(/C=C2/C(=O)N=C(N)N2C)s1 | inconclusive: 0.089% | – |
| Fc1ccc(CN2CCN(C(=S)NCCc3ccccc3)CC2)c(Cl)c1 | inconclusive: -4.19% | – |
| Cc1ccc(CCC(=O)Nc2ccc(CC(=O)O)cc2)o1 | inactive: 1.13% | – |
| COc1ccc(C(=O)Nc2cccc(NC(=O)c3cccs3)c2)cc1 | – | inconclusive: 3.98 µM [falling, partial curve] |
| Nc1nnc(SCC(=O)OCC(=O)Nc2ccccc2F)s1 | inactive: 7.99% | – |
| Nc1nc(SCC(=O)N2CCc3ccccc3C2)[nH]c(=O)c1-c1ccccc1 | – | inconclusive: 8.2 µM [falling, partial curve, poor fit] |
| Cc1ccc(C(=O)Nc2ncccc2O)o1 | – | inconclusive: 29.1 µM [falling, single point] |

| SMILES | activity change, negative = inhibition | Potency |
| --- | --- | --- |
| Cc1occc1C(=O)OCC(=O)Nc1ccc(F)cc1 | – | inconclusive: 20 µM [falling, single point] |
| CCOC(=O)c1c(C)n(C)c2ccc(OC)c(NC(=O)CN3CCN(C4CCCCC4)CC3)c12 | inconclusive: -16.2% | – |
| CC(C)NS(=O)(=O)c1ccc(NC(=S)NC(=O)c2ccc(-c3ccccc3)cc2)cc1 | – | inconclusive: 20 µM [falling, single point] |
| Cc1c(NC(=O)c2ccc3c(c2)OCO3)cccc1-c1nc2ccccc2o1 | inconclusive: 7.85% | – |
| Cc1cnc(NC(=O)c2ccc(-c3ccc([N+](=O)[O-])cc3)o2)s1 | inactive: 2.02% | – |
| O=C(COC(=O)c1cnccn1)Nc1ccc(Cl)cc1 | – | inconclusive: 8.2 µM [falling, partial curve, poor fit] |
| CCCCCCCSc1nc(N)cc(=O)[nH]1 | inconclusive: 24.3% | – |
| O=C1NC2c3ccccc3CC2O1 (centres undefined) | inactive: 0.0553% | – |
| Cc1ccc(C(=O)N2CCCC(c3ccc(Cl)cc3)=N2)cc1 | – | inconclusive: 12.6 µM [falling, partial curve] |
| O=C(CSc1nc2ncc(Cl)cc2[nH]1)c1c[nH]c2ccccc12 | inconclusive: -4.16% | – |
| OCC[C@H]1C[C@@H](O)[C@H](O)[C@@]2(CCc3ccccc3O2)O1 | inactive: 0.0415% | – |
| CSc1ccccc1C(=O)NCC(c1ccco1)N1CCCCC1 (centres undefined) | inactive: 5.17% | – |
| Cc1ccc(S(=O)(=O)c2nc(S(=O)(=O)c3ccccc3)sc2N2CCN(CCO)CC2)cc1 | – | inconclusive: 25.1 µM [falling, single point] |
| CCCCn1c(=O)[nH]c(=O)c2c1ncn2Cc1ccco1 | – | inconclusive: 18.4 µM [rising, single point] |
| CC(=O)Cc1c(C(=O)O)c(C)nn1-c1ccccc1 | inconclusive: -15.8% | – |
| Cc1ccc(CS(=O)Cc2ccc(C(=O)N3CCN(c4ccccc4)CC3)o2)cc1 (centres undefined) | inactive: -2.75% | – |
| CCOc1ccc(C(=O)O)cc1OC | inactive: -0.156% | – |
| O=C(CSCc1ccc([N+](=O)[O-])cc1)Nc1ccc(S(=O)(=O)N2CCCCCC2)cc1 | inconclusive: -4.51% | – |
| Cc1nnc(SCC(=O)N(CC(C)C)C2CCS(=O)(=O)C2)s1 (centres undefined) | inactive: 7.56% | – |
| CN(C(=O)CSc1nncc2ccccc12)c1ccccc1 | – | inconclusive: 23.1 µM [falling, partial curve, poor fit] |
| CN=C1C=C/C(=N/N=c2\ccn(O)cc2C)C=C1C | – | inconclusive: 8.91 µM [rising, partial curve] |
| C=CCNC(=S)NNC(=O)C(CCCC)CC(C)(C)O (centres undefined) | – | inconclusive: 29.1 µM [cytotoxic, single point] |
| O=C(NCc1ccco1)c1ccc2c(c1)N(Cc1ccccc1)CCS2 | inconclusive: 11.9% | – |
| O=C(Nc1nccs1)c1cn2ccccc2n1 | – | inconclusive: 11.2 µM [falling, partial curve] |
| COc1cccc2sc(Nc3nc(-c4ccccn4)cs3)nc12 | – | inconclusive: 10 µM [falling, partial curve] |

Copied from the results shown for reference:

| SMILES | activity change, negative = inhibition | Potency |
| --- | --- | --- |
| Cc1cnc(NC(=O)c2ccc(-c3ccc([N+](=O)[O-])cc3)o2)s1 | inactive: 2.02% | – |
| O=C(COC(=O)c1cnccn1)Nc1ccc(Cl)cc1 | – | inconclusive: 8.2 µM [falling, partial curve, poor fit] |
| CCCCCCCSc1nc(N)cc(=O)[nH]1 | inconclusive: 24.3% | – |
| O=C1NC2c3ccccc3CC2O1 (centres undefined) | inactive: 0.0553% | – |
